Measured values as given in publication PMC8376253.
These are yes or no findings as the source states them, for the method shown. In cells and extracts the contact can be indirect. A yes stands for co-enrichment or nearness to the bait. Other partners may have been found.

Target: T1, endogenous mouse Naa15 (liver) (mouse (endogenous in liver)) (UniProt Q80UM3)
T1 sequence: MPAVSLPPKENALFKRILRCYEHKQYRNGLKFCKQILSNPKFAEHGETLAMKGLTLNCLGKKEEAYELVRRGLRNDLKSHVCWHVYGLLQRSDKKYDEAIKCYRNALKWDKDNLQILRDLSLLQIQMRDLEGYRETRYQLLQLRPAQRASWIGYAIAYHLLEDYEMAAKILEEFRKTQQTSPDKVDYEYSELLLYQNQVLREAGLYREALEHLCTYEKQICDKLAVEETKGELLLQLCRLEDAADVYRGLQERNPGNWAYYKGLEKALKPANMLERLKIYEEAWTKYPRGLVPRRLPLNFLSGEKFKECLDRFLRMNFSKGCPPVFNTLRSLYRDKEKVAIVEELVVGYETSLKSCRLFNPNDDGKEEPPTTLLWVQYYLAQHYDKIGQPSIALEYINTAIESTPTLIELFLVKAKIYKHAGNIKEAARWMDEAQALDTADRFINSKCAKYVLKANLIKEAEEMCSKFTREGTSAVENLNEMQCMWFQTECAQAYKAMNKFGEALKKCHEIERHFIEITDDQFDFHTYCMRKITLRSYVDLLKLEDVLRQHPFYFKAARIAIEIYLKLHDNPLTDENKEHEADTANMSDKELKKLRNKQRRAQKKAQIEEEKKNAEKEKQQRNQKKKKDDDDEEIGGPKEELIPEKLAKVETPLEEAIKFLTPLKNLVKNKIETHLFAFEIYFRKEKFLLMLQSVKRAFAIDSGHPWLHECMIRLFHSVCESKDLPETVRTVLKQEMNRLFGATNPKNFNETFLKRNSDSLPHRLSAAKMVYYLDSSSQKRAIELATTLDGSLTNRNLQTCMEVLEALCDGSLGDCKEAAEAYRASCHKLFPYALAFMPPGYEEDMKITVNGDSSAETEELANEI
Test: affinity purification with mass spectrometry; liver lysate of a WT and a Naa10 KO mouse in IPH lysis buffer; anti-Naa15 antibody (anti-V5 as control), Protein A/G magnetic beads; LC-MS/MS, label-free quantification

binding: binds
B1: endogenous mouse Naa12 (liver) (protein, UniProt Q9CQX6 1-220)
chain: MNIRRARPDDLMNMQHCNLLCLPENYQMKYYFYHGLSWPQLSYIAEDEDGKIVGYVLAKMEEDPDDVPHGHITSLAVKRSHRRLGLAQKLMDQASRAMIENFSAKYVSLHVRKSNRAALHLYSNTLNFQVSEVEPKYYADGEDAYAMKRDLSQMADELRRQLVLKKGRYVVLGSKENQGSTLPGSEEASQQENLAGGDSGSDGKDSTDVQDSLQTLGSAS
